From the supplement of paper PMC12819154, “High-throughput peptide-centric local stability assay extends protein–ligand identification to membrane proteins, tissues and bacteria” (Nature Structural & Molecular Biology, 2025) come the findings set out here.

Protein sequences, listed by entry. Tags and fused reporters are not part of them. Lines headed by an entry give the natural chain unless they say otherwise; changes in a name come on top.
UniProt D3Z7Q2: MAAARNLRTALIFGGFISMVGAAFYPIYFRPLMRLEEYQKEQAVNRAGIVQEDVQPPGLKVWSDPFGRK
UniProt O08749: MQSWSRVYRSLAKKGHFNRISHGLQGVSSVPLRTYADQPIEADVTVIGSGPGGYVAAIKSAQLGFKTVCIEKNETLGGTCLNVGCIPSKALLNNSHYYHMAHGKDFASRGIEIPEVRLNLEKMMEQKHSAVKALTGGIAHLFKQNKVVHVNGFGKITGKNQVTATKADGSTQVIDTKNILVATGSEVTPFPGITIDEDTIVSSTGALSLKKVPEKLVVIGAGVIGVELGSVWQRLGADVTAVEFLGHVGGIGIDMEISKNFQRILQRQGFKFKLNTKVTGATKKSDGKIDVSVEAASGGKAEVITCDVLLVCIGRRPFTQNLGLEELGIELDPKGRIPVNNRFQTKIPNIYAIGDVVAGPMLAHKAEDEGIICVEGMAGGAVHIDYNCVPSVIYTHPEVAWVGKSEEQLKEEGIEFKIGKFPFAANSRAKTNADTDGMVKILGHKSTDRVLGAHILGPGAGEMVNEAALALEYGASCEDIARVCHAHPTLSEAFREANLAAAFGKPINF
UniProt O08997: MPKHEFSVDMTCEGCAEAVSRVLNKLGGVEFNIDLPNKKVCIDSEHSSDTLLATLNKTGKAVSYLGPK
UniProt O35347: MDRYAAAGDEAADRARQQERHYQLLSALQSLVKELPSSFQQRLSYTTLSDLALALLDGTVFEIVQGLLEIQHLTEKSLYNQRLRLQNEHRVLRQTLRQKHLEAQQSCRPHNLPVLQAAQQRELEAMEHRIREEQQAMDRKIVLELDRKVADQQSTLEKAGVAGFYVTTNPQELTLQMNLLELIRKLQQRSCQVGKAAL
UniProt G3X987: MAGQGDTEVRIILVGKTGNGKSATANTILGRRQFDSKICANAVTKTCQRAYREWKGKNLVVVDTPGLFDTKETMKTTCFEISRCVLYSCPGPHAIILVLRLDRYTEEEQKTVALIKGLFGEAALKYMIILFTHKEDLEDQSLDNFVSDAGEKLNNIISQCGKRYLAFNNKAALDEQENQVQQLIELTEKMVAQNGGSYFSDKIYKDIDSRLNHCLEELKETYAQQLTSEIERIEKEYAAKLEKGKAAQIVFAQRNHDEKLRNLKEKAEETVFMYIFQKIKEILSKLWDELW
UniProt O08582: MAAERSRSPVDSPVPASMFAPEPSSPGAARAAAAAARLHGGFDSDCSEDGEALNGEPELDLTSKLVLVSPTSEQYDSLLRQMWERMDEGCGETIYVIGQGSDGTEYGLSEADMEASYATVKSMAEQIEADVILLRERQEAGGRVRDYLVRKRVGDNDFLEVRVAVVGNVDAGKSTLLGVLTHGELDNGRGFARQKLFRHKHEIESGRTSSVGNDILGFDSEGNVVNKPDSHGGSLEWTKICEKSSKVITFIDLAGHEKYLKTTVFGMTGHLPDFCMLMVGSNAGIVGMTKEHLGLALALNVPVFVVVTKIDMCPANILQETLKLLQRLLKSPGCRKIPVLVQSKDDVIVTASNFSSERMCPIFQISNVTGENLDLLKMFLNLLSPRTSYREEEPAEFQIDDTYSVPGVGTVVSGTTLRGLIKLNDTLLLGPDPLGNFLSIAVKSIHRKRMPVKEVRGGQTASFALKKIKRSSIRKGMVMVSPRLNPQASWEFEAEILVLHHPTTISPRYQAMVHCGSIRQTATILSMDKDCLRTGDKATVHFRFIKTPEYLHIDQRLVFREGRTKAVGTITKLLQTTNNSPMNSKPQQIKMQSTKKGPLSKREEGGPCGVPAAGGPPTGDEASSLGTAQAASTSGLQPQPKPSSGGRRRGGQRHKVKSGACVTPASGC
UniProt F6XZJ7: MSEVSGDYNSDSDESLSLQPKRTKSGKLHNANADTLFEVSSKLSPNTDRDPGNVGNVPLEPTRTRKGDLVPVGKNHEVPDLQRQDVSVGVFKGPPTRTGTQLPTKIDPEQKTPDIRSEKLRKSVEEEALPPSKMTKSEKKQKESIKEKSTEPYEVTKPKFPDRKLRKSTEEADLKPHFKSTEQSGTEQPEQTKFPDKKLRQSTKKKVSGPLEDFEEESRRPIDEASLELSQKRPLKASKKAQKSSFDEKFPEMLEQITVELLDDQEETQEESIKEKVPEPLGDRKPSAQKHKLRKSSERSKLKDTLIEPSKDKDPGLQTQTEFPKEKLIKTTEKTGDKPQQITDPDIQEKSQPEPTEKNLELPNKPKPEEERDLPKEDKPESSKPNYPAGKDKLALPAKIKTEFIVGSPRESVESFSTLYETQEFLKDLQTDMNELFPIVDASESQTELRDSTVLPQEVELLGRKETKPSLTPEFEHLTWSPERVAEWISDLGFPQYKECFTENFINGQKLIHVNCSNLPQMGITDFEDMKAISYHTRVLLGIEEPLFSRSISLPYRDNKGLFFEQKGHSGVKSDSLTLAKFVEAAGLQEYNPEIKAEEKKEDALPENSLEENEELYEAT
UniProt F8VPQ2: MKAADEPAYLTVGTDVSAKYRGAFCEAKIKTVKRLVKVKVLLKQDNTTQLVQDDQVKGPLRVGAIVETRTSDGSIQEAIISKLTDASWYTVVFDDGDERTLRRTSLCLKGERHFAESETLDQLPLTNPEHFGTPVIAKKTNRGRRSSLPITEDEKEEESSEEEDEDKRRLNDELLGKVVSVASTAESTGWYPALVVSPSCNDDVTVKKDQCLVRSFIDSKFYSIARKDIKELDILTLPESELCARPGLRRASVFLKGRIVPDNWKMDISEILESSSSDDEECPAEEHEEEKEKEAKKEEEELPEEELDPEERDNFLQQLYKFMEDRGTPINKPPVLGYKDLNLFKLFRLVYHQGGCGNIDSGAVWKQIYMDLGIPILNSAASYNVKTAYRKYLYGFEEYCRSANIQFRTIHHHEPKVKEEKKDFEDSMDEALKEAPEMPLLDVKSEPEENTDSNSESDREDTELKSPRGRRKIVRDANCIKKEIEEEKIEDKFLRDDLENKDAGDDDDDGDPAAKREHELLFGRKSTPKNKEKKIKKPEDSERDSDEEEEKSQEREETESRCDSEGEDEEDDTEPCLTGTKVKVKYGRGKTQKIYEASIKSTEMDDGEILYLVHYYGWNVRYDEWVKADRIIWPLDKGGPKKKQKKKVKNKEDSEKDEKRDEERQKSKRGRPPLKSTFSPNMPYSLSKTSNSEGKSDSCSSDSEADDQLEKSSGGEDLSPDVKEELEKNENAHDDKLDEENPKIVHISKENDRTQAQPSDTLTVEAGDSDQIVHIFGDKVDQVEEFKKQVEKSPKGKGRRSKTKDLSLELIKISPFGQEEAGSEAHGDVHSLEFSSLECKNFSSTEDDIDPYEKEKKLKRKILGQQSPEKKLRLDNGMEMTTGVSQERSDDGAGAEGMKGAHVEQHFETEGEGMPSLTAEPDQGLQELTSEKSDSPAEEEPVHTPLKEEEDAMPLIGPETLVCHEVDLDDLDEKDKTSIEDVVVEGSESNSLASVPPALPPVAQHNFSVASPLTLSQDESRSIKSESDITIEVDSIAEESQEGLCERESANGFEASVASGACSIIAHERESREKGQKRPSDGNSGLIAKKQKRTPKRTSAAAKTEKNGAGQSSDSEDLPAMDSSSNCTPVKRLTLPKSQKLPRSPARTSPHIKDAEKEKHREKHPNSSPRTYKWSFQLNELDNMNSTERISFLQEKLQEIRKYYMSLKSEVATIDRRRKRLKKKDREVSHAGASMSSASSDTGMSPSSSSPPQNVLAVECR
UniProt E9Q0S6: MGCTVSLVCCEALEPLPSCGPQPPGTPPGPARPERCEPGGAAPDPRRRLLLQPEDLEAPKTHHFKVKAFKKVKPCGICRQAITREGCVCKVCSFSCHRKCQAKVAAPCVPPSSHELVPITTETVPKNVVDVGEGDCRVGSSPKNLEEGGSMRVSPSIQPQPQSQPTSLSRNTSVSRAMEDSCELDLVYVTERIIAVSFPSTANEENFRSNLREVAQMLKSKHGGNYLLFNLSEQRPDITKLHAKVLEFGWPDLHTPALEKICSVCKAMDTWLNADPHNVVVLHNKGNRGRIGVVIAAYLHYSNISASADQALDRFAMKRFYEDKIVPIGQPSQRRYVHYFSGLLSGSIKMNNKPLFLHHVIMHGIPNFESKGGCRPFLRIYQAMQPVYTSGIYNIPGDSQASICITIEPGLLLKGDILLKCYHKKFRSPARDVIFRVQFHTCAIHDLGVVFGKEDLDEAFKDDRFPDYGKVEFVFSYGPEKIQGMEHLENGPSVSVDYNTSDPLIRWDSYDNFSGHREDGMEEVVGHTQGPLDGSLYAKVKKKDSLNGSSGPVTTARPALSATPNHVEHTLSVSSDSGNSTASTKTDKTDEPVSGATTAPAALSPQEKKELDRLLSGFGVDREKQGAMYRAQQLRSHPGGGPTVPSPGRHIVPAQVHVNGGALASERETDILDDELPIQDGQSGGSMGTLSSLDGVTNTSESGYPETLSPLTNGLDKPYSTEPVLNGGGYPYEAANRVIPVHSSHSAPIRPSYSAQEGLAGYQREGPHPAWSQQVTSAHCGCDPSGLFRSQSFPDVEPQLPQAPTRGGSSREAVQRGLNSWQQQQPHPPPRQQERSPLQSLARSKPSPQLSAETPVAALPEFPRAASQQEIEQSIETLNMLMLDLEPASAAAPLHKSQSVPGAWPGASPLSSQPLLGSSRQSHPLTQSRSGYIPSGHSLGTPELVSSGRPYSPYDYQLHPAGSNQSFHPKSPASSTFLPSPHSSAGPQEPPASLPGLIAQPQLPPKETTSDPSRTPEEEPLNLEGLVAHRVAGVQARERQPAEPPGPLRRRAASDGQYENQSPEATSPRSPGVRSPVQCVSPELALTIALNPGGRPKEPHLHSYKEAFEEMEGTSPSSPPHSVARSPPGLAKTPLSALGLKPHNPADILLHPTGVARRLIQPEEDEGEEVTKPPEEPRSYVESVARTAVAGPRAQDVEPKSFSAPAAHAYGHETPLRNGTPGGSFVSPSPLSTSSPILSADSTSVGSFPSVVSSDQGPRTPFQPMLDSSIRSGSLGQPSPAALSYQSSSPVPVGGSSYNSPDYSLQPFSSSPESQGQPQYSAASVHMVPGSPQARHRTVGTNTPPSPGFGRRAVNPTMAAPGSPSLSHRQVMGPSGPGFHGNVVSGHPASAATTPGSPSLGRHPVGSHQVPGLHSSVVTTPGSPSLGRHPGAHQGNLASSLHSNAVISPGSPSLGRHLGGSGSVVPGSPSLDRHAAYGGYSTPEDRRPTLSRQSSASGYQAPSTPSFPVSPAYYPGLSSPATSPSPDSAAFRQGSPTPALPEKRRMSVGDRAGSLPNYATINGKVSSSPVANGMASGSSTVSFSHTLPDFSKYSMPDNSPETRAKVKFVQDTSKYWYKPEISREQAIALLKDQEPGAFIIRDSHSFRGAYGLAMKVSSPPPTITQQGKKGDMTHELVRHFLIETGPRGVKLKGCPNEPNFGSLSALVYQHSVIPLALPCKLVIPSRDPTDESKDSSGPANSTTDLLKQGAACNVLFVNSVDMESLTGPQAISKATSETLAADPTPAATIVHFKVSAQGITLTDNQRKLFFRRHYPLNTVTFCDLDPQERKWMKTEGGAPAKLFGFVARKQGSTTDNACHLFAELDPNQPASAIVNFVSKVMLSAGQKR
UniProt E9Q5K4: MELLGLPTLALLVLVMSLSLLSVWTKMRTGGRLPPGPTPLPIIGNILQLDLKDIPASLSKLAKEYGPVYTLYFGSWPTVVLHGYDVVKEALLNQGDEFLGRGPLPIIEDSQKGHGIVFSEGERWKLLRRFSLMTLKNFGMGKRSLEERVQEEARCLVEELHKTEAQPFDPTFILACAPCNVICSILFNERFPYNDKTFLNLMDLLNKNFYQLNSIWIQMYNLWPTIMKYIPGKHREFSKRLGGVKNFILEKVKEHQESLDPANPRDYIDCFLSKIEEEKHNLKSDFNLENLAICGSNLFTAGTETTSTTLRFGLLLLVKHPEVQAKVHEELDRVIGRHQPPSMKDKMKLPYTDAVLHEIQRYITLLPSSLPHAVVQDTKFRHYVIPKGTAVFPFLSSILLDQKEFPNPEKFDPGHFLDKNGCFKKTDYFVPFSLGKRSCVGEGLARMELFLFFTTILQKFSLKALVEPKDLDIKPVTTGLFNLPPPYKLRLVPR
UniProt O35130: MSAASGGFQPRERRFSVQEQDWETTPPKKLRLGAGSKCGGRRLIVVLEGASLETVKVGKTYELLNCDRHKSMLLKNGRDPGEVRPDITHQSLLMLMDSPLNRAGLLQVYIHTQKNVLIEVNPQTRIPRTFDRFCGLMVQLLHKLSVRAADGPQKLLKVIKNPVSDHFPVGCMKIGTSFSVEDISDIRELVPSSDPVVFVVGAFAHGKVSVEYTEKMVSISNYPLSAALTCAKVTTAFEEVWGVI

This is one part of the list. Most values lie at the level of the controls, where differences are scatter.

Compound in this experiment: CN[C@@H]1C[C@H]2O[C@@](C)([C@@H]1OC)n1c3ccccc3c3c4c(c5c6ccccc6n2c5c31)C(=O)NC4 [staurosporine]
Briefly: log2 fold change of tryptic peptide abundance, ligand vs vehicle (limited proteolysis) (log2 ratio); higher = more trypsin-susceptible (destabilized). The settings on record: ligand concentration: 20 uM; sample: mouse liver crude lysate; replicate design: treated separately.
On to “UniProt D3Z7Q2 (peptide sequence: LEEYQKEQAVNR, peptide start residue: 35)”, for which the log2 fold change was -0.144.
Next, “UniProt O35226 (peptide sequence: NGDFLPTR, peptide start residue: 18)”: -0.12; “UniProt G5E8Z2 (peptide sequence: DANLTALAAIGPR, peptide start residue: 774)”: -0.0395; “UniProt O08749 (peptide sequence: ALTGGIAHLFK, peptide start residue: 133)”: 0.249.
In the case of “UniProt O08808 (peptide sequence: SPDELPATGGDGGKHK, peptide start residue: 22)” it was 0.373.
Next, “UniProt E9Q5K9 (peptide sequence: KLNLAFR, peptide start residue: 387)”: 0.369; “UniProt O35177 (peptide sequence: QVAAQDIR, peptide start residue: 765)”: 0.26; “UniProt O08919 (peptide sequence: AFSYICR, peptide start residue: 126)”: -0.112.
For the target “UniProt O09130 (peptide sequence: VLMSHYEEAMGLSGHK, peptide start residue: 366)”, the log2 fold change is -0.463.
As to “UniProt E1U8D0 (peptide sequence: LQIGELSGK, peptide start residue: 338)”, the log2 fold change was -0.322.
Next, “UniProt O08997 (peptide sequence: VCIDSEHSSDTLLATLNKTGK, peptide start residue: 40)”: 0.0924; “UniProt B2RXR6 (peptide sequence: HGHELLINTLITSGADTAK, peptide start residue: 349)”: -0.681.
Next, “UniProt O35347 (peptide sequence: ELEAMEHR, peptide start residue: 122)”: -0.666; “UniProt D3Z338 (peptide sequence: LCLEFLAINYR, peptide start residue: 102)”: 0.339; “UniProt O09173 (peptide sequence: WKPFEIPK, peptide start residue: 97)”: 0.285.
Turning to “UniProt G3X987 (peptide sequence: YLAFNNK, peptide start residue: 164)”, the log2 fold change was -0.148.
Regarding “UniProt O08970 (peptide sequence: QVSHGNFSTQAR, peptide start residue: 351)”, the log2 fold change was found to be 0.461.
Next, “UniProt B2RY04 (peptide sequence: TAYTFPGILK, peptide start residue: 1491)”: -0.402; “UniProt F8VQB6 (peptide sequence: VAVNNFGVK, peptide start residue: 539)”: -0.279; “UniProt O08750 (peptide sequence: LNDLVLENK, peptide start residue: 96)”: -0.33.
In the case of “UniProt B2RY71 (peptide sequence: EIREQEK, peptide start residue: 858)” it was -0.00642.
In the case of “UniProt B7ZNG0 (peptide sequence: FHFVDLAGSER, peptide start residue: 270)” it was 0.0211.
On to “UniProt O08582 (peptide sequence: GGQTASFALK, peptide start residue: 457)”, for which the log2 fold change was found to be 0.34.
As to “UniProt E0CYV9 (peptide sequence: KMQREHEFK, peptide start residue: 809)”, the log2 fold change worked out at 0.179.
Take “UniProt F6XZJ7 (peptide sequence: PKPEEERDLPK, peptide start residue: 366)”: the log2 fold change amounted to 0.311.
For the target “UniProt E9Q7X6 (peptide sequence: SDPSIGGGESTGR, peptide start residue: 419)”, the log2 fold change was -0.291.
In the case of “UniProt F8VPQ2 (peptide sequence: ILGQQSPEKK, peptide start residue: 862)” it was 0.411; in that of “UniProt E9Q7F2 (peptide sequence: TCISTVMK, peptide start residue: 549)”, 0.542.
Next, “UniProt O08601 (peptide sequence: MLSASGDPVSVVK, peptide start residue: 716)”: -0.235.
In the case of “UniProt E9Q0S6 (peptide sequence: FYEDKIVPIGQPSQRR, peptide start residue: 320)”, the log2 fold change amounted to 0.867.
In the case of “UniProt G5E8K5 (peptide sequence: CFCMTDDRVDK, peptide start residue: 1331)” it was -0.366.
Next, “UniProt E9Q5K4 (peptide sequence: YITLLPSSLPHAVVQDTK, peptide start residue: 362)”: -0.224.
As to “UniProt O35130 (peptide sequence: FCGLMVQLLHK, peptide start residue: 133)”, the log2 fold change amounted to 0.652.
Next, “UniProt O09159 (peptide sequence: VAWHIDPFGHSR, peptide start residue: 191)”: -0.263.
In the case of “UniProt E9PYH6 (peptide sequence: RSENSYQDSFSR, peptide start residue: 300)” it was -0.451.
